For two substances, binding results are on record in PMC3491040.

Protein sequences, listed by entry. Tags and fused reporters are not part of them. Residues count along the entry.
UniProt P35968, residues 20-1356: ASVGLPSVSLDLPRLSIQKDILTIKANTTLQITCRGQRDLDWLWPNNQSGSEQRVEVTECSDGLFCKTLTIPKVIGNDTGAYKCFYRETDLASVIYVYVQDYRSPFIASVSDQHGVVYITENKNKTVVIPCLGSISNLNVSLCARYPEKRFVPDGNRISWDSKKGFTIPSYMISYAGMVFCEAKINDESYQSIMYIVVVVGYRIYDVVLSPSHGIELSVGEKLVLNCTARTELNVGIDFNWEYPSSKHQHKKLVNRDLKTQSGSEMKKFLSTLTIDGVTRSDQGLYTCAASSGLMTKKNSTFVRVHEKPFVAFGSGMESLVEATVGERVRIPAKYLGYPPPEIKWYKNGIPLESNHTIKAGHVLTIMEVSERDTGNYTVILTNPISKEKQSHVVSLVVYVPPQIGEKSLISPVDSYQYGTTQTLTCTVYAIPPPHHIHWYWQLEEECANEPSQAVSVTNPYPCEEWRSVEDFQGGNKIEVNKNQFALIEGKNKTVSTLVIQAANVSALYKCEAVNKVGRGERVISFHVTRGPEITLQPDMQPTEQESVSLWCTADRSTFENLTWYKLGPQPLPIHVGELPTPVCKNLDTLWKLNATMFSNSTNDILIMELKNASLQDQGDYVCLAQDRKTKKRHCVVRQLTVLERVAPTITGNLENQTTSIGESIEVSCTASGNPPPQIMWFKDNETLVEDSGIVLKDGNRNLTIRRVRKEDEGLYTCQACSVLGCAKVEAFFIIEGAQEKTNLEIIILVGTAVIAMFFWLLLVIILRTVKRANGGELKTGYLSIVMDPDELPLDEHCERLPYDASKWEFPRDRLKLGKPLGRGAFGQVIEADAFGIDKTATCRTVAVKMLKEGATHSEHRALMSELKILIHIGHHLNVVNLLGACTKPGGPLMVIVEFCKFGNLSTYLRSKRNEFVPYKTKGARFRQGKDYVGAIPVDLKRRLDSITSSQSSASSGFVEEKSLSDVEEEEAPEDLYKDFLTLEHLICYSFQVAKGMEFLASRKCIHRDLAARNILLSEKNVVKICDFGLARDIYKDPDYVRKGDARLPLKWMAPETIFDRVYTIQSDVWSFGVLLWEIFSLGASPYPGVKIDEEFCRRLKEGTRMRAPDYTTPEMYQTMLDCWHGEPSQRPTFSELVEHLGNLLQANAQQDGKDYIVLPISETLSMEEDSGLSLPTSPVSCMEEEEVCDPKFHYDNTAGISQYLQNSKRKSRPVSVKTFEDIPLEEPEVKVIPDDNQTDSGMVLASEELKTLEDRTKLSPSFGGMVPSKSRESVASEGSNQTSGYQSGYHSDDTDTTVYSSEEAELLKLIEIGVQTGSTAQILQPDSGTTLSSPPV
UniProt P08238: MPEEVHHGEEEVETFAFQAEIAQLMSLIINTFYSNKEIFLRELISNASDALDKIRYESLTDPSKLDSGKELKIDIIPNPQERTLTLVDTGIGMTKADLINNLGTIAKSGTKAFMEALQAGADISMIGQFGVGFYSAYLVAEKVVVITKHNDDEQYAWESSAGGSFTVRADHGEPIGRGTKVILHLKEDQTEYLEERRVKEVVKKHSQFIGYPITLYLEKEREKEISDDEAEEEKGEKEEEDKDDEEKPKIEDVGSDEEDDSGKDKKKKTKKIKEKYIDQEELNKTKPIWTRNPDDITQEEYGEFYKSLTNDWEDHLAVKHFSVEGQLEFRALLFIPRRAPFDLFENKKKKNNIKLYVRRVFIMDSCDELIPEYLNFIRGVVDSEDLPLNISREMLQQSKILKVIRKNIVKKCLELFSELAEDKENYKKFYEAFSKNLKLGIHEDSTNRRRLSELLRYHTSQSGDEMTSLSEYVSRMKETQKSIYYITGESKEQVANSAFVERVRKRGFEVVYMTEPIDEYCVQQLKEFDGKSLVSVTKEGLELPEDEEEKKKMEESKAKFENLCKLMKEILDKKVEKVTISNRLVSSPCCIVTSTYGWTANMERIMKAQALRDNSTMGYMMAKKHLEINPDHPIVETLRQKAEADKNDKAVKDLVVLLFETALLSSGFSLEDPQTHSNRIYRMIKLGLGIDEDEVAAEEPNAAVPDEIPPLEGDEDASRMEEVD
UniProt Q9UNE7: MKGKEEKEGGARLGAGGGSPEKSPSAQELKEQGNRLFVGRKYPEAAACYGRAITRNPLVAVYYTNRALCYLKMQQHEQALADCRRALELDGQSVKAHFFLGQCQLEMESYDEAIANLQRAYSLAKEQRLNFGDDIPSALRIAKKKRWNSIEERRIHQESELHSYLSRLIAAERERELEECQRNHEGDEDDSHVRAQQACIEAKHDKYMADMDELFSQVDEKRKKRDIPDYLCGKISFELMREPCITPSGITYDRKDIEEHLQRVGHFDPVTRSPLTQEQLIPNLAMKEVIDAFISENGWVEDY

Results are given in words; binding and its absence hold for the method and conditions named. Binding seen in cells or lysates may run through a third protein.

The target in the experiment is vascular endothelial growth factor receptor 2 (human (endogenous in HUVECs)) (UniProt P35968). Put plainly: co-IP; VEGFR2 immunoprecipitated from HUVEC lysates (0.5 µg antibody, 500 µg total protein, protein G-Sepharose, 2 h at 4°C; lysis buffer 0.5% digitonin, 100 mM KCl, 20 mM Hepes pH 7.4); cells without or with geldanamycin for 4 h; goat IgG as control; immunoblotting of the complexes. A general note: Immunoblotting shows a protein as a band on a membrane.

As for HSP90β (from UniProt P08238 1-724), the binding entry is listed as “no binding”.
As to “carboxy terminus of HSP70-interacting protein (from UniProt Q9UNE7 1-303) (enzyme)”, the binding result is reported as “no binding”.
